Survivor count and T/C data for 18 compounds are collected here from PubChem BioAssay AID330 (DTP/NCI, 2004).

The list does not hold the whole screen: it gathers tests that were run many times, whatever their T/C, doses with no T/C, and many T/C values between a quarter and a half above the control. Further doses and runs are listed elsewhere. T/C gives the treated animals as a percentage of the vehicle group. Some doses have a count of surviving animals in place of a T/C: the source holds a T/C of zero for them, seemingly a mark for toxic or unscored doses. Some survivor counts are full or nearly so, which does not show that the dose was tolerated: survival well below the control is almost never listed, so the zero probably covers shortened survival too. Survivors were counted at the toxicity check, usually on the fifth day, unless a day is given; later deaths do not show. Schedules are NCI's codes, read here as Q, the interval in days (D) or hours (H), X, the number of doses. Some entries were tested several times; the results are listed from low to high. Some molecules as drawn cover several salts, stereoisomers or complexes of the source; a dose is that of the sample tested. Where survival is the endpoint, the PubChem record calls one and a half times the control and up active, and a quarter to a half above the control has no call in these data; cut-offs in other NCI protocols can differ.

This test has as its system P388 leukemia ip, CD2F1 mice, survival T/C. As to the kind of experiment: NCI In Vivo Anticancer Drug Screen. Data for tumor model P388 Leukemia (intraperitoneal) in CD2F1 (CDF1) mice. The following applies: T/C endpoint: median survival time, higher T/C = longer survival.
Setting [1] is: dose: 60.0 mg/kg/injection, schedule: Q01DX005 (ip), vehicle: saline with Tween-80.
[2] abbreviates: dose: 120.0 mg/kg/injection, schedule: Q01DX005 (ip), vehicle: saline with Tween-80.
Setting [3] is: dose: 240.0 mg/kg/injection, schedule: Q01DX005 (ip), vehicle: saline with Tween-80.
[4] abbreviates: dose: 200.0 mg/kg/injection, schedule: Q01DX005 (ip), vehicle: saline with Tween-80.
Where [5] appears, read: dose: 200.0 mg/kg/injection, schedule: Q04DX003 (ip), vehicle: saline.
[6] abbreviates: dose: 50.0 mg/kg/injection, schedule: Q01DX009 (ip), vehicle: saline with Tween-80.
[7] abbreviates: dose: 100.0 mg/kg/injection, schedule: Q01DX009 (ip), vehicle: saline with Tween-80.
Setting [8] is: dose: 200.0 mg/kg/injection, schedule: Q01DX009 (ip), vehicle: saline with Tween-80.
Setting [9] is: dose: 200.0 mg/kg/injection, schedule: Q01DX009 (ip), vehicle: Klucel (hydroxypropylcellulose) (HPC).
The mark [10] stands for this setting: dose: 50.0 mg/kg/injection, schedule: Q01DX009 (ip), vehicle: saline.
[11] abbreviates: dose: 100.0 mg/kg/injection, schedule: Q01DX009 (ip), vehicle: saline.
The mark [12] stands for this setting: dose: 200.0 mg/kg/injection, schedule: Q01DX009 (ip), vehicle: saline.
Setting [13] is: dose: 12.5 mg/kg/injection, schedule: Q01DX009 (ip), vehicle: saline.
Setting [14] is: dose: 25.0 mg/kg/injection, schedule: Q01DX009 (ip), vehicle: saline.

Take `OC1CCCC1NC1CCCCC1` (configuration not stated): the survivor count by setting is: (dose: 60.0 mg/kg/injection, schedule: Q01DX005 (ip), vehicle: Klucel (hydroxypropylcellulose) (HPC)) 0 of 6; (dose: 120.0 mg/kg/injection, schedule: Q01DX005 (ip), vehicle: Klucel (hydroxypropylcellulose) (HPC)) 2 of 6; (dose: 240.0 mg/kg/injection, schedule: Q01DX005 (ip), vehicle: Klucel (hydroxypropylcellulose) (HPC)) 0 of 6.
Turning to `C[C@]12CCC(=O)N[C@@H]1CC[C@@H]1[C@@H]2CC[C@]2(C)[C@@H](OC(=O)COc3ccc(N(CCCl)CCCl)cc3)CC[C@@H]12`, the T/C by setting is: (dose: 5.0 mg/kg/injection, schedule: Q01DX005 (ip), vehicle: saline with Tween-80) 126 % of control; (dose: 7.5 mg/kg/injection, schedule: Q01DX005 (ip), vehicle: saline with Tween-80) 144 % of control. Also, the survivor count runs as follows: under setting [1], 6 of 6; under setting [2], 5 of 6; under setting [3], 0 of 6.
For `CCc1cc2c(cc1C(=O)CBr)C(C)(C)CCC2(C)C`, the survivor count is reported as 4 of 6 (dose: 25.0 mg/kg/injection, schedule: Q01DX009 (ip), vehicle: saline with Tween-80); 4 of 6 (dose: 50.0 mg/kg/injection, schedule: Q04DX003 (ip), vehicle: saline with Tween-80); 2 of 6 (dose: 100.0 mg/kg/injection, schedule: Q04DX003 (ip), vehicle: saline with Tween-80); 0 of 6 (dose: 200.0 mg/kg/injection, schedule: Q04DX003 (ip), vehicle: saline with Tween-80); 0 of 6 (dose: 400.0 mg/kg/injection, schedule: Q04DX003 (ip), vehicle: saline with Tween-80).
With `O=C(OCCN1CCN(CCOC(=O)C(Cl)(c2ccccc2)c2ccccc2)CC1)C(Cl)(c1ccccc1)c1ccccc1`, the survivor count (dose: 50.0 mg/kg/injection, schedule: Q01DX005 (ip), vehicle: saline with Tween-80) is listed as 5 of 5 and the survivor count under setting [4] is 5 of 5.
For `CCOP(=O)(O)C1CCCC(C)[N-]1.CCOP(=O)(O)C1CCCC(C)[N-]1.CCOP(=O)(O)C1CCCC(C)[N-]1.[Fe+3]` (configuration not stated), the survivor count (dose: 100.0 mg/kg/injection, schedule: Q04DX003 (ip), vehicle: saline) is recorded as 5 of 6 and the survivor count under setting [5] is 6 of 6.
For the compound `CC(=O)Nc1c(-c2ccccc2)[nH]c2ccccc12`, the survivor count reads like this: (dose: 200.0 mg/kg/injection, schedule: Q01DX001 (ip), vehicle: saline with Tween-80) 4 of 6; (dose: 400.0 mg/kg/injection, schedule: Q01DX001 (ip), vehicle: saline with Tween-80) 0 of 6.
`O=P(N1CCCCC1)(N1CC1)N1CC1`: the T/C (dose: 8.33 mg/kg/injection, schedule: Q01DX009 (ip), vehicle: saline) is 127 % of control. The survivor count (dose: 18.7 mg/kg/injection, schedule: Q01DX009 (ip), vehicle: saline) was 6 of 6.
`Cn1ncc2c(Cl)ncnc21`: the survivor count (dose: 400.0 mg/kg/injection, schedule: Q01DX009 (ip), vehicle: Klucel (hydroxypropylcellulose) (HPC)) is listed as 1 of 6.
For the compound `CC1C/C(=C2/NC3CCCCC3NC2=O)C(=O)O1` (configuration not stated), the survivor count under setting [6] was 3 of 6, the survivor count under setting [7] is reported as 2 of 6 and the survivor count under setting [8] is 0 of 6.
In the case of `Nc1ccn([C@@H]2C=C(CO)[C@@H](O)[C@H]2O)c(=O)n1`, the T/C is, setting by setting: (dose: 0.25 mg/kg/injection, schedule: Q01DX009 (ip), vehicle: saline) 130 % of control; (dose: 0.44 mg/kg/injection, schedule: Q01DX009 (ip), vehicle: saline) 126 % of control; (dose: 0.67 mg/kg/injection, schedule: Q01DX009 (ip), vehicle: saline) 137 % of control; (dose: 1.0 mg/kg/injection, schedule: Q01DX009 (ip), vehicle: saline) 147 % of control.
As to `CC(=O)NC1CC(=O)N(c2ccc(Cl)cc2)C1=O` (configuration not stated), under setting [9], the T/C was 125 % of control. In addition, the survivor count (dose: 400.0 mg/kg/injection, schedule: Q04DX003 (ip), vehicle: Klucel (hydroxypropylcellulose) (HPC)) is on record as 3 of 6.
Take `CC1=NC(C#N)=C(C#N)N=C(C)C1`: for the setting “dose: 100.0 mg/kg/injection, schedule: Q01DX009 (ip), vehicle: Klucel (hydroxypropylcellulose) (HPC)”, the survivor count is reported as 5 of 6.
As for `CC(=O)OC1C(c2ccc(Cl)cc2)CC2CCC1N2C` (configuration not stated), the survivor count under setting [4] is given as 0 of 6.
On to `NC(Cc1ccccc1)C(=O)OCN1C(=O)C2C3C=CC(C2C1=O)C1C2C(=O)N(COC(=O)C(N)Cc4ccccc4)C(=O)C2C31` (configuration not stated), for which the T/C is, setting by setting: under setting [10], 129 % of control; (dose: 50.0 mg/kg/injection, schedule: Q01DX009 (ip), vehicle: water) 134 and 137 % of control; under setting [11], 136 % of control; (dose: 100.0 mg/kg/injection, schedule: Q01DX009 (ip), vehicle: water) 131 and 139 % of control. Moreover, the survivor count is, setting by setting: under setting [12], 2 of 6; (dose: 200.0 mg/kg/injection, schedule: Q01DX009 (ip), vehicle: water) 2 of 6 and 5 of 6.
Regarding `COc1cc(OC)c(/C=C\c2cc(/C=C/c3c(OC)cc(OC)cc3OC)c3ccccc3[n+]2C)c(OC)c1`, the T/C is 146 % of control under setting [13] and 144 % of control under setting [14]. Also, the survivor count was 5 of 6 (dose: 16.0 mg/kg/injection, schedule: Q01DX009 (ip), vehicle: saline); 5 of 6 and 6 of 6 under setting [14]; 5 of 6 (dose: 35.0 mg/kg/injection, schedule: Q01DX009 (ip), vehicle: saline); 2 of 6 and 5 of 6 under setting [10]; 1 of 6 under setting [11]; 2 of 6 under setting [12]. Moreover, the survivor count (dose: 400.0 mg/kg/injection, schedule: Q01DX009 (ip), vehicle: saline) is given as 0 of 6.
For `C#CCSc1nc2ccccc2s1`, under setting [9], the survivor count was 1 of 6.
As for `Cc1nnc2c([N+](=O)[O-])c(N)c(Cl)nn12`, the survivor count (dose: 30.0 mg/kg/injection, schedule: Q01DX005 (ip), vehicle: saline with Tween-80) is given as 0 of 6; the survivor count under setting [1] is on record as 2 of 6; the survivor count under setting [2] was 0 of 6; the survivor count under setting [3] was 0 of 6.
As to `CC(=O)OCC1OC(n2cc(CBr)nn2)C(OC(C)=O)C(OC(C)=O)C1OC(C)=O` (configuration not stated), the T/C by setting is: under setting [13], 131 % of control; under setting [14], 149 % of control; under setting [6], 127 % of control. In addition, the survivor count (dose: 50.0 mg/kg/injection, schedule: Q01DX009 (ip), vehicle: distilled water + Tween-80) is on record as 5 of 6; the survivor count (dose: 100.0 mg/kg/injection, schedule: Q01DX009 (ip), vehicle: distilled water + Tween-80) is 0 of 6; the survivor count under setting [7] is reported as 2 of 6; the survivor count under setting [8] is 1 of 6; the survivor count under setting [5] is 4 of 6; the survivor count (dose: 300.0 mg/kg/injection, schedule: Q04DX003 (ip), vehicle: saline) is recorded as 4 of 6.
